The target of assay [1] is Utp10-FTpA (Saccharomyces cerevisiae (yeast)) (UniProt P42945). Nature of the assay: affinity purification with mass spectrometry; tandem affinity purification of an FTpA-tagged bait from yeast lysate (IgG Sepharose, TEV elution, FLAG agarose, FLAG peptide elution; 60 mM Tris-HCl pH 8.0, 50 mM NaCl, 40 mM KCl, 2 mM MgCl2); cells: wild type, krr1∆C1, or galactose-induced KRR1 or krr1∆C3; SDS-PAGE and semiquantitative MS.

Protein sequences, listed by entry. Tags and fused reporters are not part of them.
UniProt P42945: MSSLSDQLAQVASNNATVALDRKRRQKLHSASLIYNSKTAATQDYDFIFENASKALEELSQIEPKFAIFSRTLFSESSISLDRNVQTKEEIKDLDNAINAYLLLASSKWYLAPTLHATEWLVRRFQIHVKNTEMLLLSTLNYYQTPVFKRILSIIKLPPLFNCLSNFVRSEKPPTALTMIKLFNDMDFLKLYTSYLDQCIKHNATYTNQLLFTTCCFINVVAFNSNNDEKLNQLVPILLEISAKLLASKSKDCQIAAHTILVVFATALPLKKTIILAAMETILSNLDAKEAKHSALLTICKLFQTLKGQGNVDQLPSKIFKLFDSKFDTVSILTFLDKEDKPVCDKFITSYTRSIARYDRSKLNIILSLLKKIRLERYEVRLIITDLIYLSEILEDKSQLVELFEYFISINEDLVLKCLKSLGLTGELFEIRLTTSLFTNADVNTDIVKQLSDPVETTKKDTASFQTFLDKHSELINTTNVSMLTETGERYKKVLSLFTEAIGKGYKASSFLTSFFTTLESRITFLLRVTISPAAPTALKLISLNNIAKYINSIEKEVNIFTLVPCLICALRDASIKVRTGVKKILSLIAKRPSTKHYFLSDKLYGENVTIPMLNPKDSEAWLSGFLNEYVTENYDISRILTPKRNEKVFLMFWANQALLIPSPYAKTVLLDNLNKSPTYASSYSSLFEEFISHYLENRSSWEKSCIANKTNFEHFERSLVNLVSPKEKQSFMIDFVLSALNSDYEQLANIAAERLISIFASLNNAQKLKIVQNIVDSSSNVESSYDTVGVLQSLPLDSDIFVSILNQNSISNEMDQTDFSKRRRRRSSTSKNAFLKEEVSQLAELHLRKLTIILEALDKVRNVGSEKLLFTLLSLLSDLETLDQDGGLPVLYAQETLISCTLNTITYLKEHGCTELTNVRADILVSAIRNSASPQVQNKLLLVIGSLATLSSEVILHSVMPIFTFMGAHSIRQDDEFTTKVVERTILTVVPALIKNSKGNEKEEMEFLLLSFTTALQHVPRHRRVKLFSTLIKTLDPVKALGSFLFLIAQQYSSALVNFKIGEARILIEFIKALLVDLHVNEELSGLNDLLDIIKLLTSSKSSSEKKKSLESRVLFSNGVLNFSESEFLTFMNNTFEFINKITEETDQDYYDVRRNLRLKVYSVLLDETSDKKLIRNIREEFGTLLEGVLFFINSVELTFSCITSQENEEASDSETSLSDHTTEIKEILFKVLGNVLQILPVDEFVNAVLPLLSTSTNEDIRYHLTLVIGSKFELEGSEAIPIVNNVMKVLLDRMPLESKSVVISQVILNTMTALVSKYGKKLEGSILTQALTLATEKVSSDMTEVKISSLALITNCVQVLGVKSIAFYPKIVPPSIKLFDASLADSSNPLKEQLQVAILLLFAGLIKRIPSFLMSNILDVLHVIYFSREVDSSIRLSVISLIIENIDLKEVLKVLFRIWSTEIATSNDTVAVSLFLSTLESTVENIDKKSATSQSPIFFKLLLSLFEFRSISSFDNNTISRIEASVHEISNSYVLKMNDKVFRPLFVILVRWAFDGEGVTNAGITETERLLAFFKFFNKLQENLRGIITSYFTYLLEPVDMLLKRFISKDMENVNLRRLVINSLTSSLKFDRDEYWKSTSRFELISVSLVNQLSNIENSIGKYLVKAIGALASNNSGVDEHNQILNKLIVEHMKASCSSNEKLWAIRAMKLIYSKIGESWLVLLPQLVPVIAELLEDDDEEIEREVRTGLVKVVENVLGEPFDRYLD
UniProt P25586: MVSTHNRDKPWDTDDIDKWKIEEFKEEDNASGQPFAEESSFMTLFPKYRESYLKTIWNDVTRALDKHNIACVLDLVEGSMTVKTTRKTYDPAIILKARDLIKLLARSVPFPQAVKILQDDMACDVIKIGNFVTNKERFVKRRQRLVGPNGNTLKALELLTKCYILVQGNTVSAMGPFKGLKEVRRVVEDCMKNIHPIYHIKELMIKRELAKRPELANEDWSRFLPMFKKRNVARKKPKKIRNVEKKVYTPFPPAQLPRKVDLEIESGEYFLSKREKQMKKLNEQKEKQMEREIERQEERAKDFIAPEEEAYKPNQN
UniProt Q05022: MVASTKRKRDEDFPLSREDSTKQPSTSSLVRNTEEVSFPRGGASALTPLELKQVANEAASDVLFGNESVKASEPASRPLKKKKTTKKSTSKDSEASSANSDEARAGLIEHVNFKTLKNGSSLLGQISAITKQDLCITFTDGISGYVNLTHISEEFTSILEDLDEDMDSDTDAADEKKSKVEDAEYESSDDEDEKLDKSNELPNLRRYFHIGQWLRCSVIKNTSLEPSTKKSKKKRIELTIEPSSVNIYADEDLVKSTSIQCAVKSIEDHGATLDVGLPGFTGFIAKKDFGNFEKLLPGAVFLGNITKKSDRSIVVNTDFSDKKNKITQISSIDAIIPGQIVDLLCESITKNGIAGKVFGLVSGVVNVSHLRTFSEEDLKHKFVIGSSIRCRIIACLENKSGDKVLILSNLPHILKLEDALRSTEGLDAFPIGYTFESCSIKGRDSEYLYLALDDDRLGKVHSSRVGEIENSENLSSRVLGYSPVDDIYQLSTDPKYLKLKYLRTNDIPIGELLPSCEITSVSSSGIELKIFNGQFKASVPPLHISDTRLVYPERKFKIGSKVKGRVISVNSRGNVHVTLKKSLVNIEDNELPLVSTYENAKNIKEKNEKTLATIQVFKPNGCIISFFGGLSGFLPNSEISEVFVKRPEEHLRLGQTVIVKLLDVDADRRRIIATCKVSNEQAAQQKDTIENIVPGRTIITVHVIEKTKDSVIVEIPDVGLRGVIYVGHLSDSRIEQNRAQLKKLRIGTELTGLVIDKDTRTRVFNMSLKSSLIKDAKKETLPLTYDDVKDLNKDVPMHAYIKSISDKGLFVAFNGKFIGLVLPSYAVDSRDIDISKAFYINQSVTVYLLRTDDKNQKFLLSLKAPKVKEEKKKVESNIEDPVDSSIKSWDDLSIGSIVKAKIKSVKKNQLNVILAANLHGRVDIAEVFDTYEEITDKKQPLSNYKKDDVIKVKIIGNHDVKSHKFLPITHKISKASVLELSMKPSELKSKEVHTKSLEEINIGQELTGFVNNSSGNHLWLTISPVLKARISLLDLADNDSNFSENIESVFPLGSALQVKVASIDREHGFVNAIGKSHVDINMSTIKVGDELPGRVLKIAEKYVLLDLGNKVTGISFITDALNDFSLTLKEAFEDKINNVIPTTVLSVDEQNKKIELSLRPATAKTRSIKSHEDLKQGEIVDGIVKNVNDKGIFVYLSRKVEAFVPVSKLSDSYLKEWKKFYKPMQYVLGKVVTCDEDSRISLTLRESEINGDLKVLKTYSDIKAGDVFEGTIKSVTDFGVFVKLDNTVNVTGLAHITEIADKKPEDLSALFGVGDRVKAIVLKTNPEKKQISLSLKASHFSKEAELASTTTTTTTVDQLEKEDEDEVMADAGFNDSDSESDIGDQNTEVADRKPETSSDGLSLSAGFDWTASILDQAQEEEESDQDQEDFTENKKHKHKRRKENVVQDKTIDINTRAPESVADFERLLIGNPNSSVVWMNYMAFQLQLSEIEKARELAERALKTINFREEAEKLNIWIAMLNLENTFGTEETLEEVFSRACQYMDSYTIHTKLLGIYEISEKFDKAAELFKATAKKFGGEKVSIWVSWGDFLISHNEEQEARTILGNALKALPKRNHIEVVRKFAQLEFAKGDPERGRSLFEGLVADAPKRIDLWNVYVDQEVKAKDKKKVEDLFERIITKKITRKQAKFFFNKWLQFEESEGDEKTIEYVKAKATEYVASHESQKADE

Assay [2] deals with T1, Utp23-FTpA (Saccharomyces cerevisiae (yeast)) (UniProt Q12339).
T1 sequence: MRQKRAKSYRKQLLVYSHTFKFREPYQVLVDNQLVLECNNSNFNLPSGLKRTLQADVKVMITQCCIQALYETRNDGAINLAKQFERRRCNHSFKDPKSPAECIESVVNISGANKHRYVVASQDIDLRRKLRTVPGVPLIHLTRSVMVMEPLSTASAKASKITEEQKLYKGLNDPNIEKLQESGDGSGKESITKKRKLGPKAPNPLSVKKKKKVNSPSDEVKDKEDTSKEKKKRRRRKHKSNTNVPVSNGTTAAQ
Described as above.

Assay [3] deals with T2, Noc4-FTpA (Saccharomyces cerevisiae (yeast)) (UniProt Q06512).
T2 sequence: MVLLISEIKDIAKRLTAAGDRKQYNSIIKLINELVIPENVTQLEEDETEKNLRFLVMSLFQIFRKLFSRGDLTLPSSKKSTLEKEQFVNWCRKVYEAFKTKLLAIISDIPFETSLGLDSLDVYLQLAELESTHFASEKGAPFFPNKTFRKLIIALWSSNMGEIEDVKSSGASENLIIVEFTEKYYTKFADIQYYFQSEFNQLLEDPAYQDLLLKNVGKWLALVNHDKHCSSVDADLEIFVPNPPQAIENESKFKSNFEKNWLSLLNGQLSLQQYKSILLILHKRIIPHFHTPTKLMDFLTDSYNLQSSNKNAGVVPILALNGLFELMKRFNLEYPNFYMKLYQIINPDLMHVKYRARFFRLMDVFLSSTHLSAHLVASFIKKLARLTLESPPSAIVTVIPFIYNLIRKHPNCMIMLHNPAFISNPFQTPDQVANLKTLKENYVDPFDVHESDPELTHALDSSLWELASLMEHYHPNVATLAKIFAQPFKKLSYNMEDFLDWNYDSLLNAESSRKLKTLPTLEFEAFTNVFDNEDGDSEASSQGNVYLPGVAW
The assay is described as above.

The target of assay [4] is T3, Kri1-FTpA (Saccharomyces cerevisiae (yeast)) (UniProt P42846).
T3 sequence: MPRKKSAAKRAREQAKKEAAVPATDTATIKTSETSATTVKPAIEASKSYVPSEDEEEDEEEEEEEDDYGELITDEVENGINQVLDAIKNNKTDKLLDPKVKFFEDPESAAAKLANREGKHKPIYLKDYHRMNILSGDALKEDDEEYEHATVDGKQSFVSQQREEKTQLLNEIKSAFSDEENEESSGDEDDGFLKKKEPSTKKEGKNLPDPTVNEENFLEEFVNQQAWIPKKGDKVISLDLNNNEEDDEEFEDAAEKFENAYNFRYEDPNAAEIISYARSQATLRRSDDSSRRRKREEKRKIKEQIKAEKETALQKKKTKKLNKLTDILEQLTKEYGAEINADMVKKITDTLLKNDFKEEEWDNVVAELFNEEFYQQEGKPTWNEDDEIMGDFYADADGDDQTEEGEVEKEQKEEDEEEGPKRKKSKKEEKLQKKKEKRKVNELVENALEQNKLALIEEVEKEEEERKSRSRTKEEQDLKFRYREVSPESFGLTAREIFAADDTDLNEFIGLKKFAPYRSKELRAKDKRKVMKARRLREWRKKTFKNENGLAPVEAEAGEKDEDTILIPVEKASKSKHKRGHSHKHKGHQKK
The assay is described as above.

Assay [5] concerns the target Krr1 (wild type, second bait of the split-tag purification) (Saccharomyces cerevisiae (yeast)) (UniProt P25586). Nature of the assay: affinity purification with mass spectrometry; split-tag affinity purification from yeast lysate: Utp23 as first bait (IgG Sepharose, TEV elution), wild-type or mutant Krr1 as second bait (FLAG agarose, FLAG peptide elution); SDS-PAGE and semiquantitative MS.

In assay [6] the target is T4, protA-TEV-tagged Utp23 (Saccharomyces cerevisiae (yeast)) (UniProt Q12339).
T4 sequence: T1 sequence
Described as above.

Results are given in words; binding and its absence hold for the method and conditions named. Binding seen in cells or lysates may run through a third protein. A yes stands for co-enrichment or nearness to the bait. Other partners may have been found. For some assays here: Tags and fused reporters may be left off the sequences shown.

As for Rrp5 (from UniProt Q05022 1-1729), the binding result in assay [1] is “binds”; in assay [2], “binds weakly”; in assay [3], “binds”; in assay [4], “binds weakly”.

B1: Mrd1 (protein, UniProt Q06106 1-887)
chain: MSRIIVKGLPVYLTDDNLREHFTKRLRQKHSHQAVNGSGPDLITDVKILRDRNGESRRFGFIGYRNEEDAFDAVEYFNGSFINTSKIEVSMAKSFADPRVPQPMKEKRREALKRFREKEEKLLQEENRKKKKVDENKHSNIDDEIRKNKQLQEFMETMKPSSQVTSWEKVGIDKSIEDEKLKREEEDSSVQGNSLLAHALALKEENNKDEAPNLVIENESDDEYSALNRNRDEDQEDAGEEEKMISISNLKDTDIGLVNDDANSDEKENEKRRNLAQDEKVSDLDWFKQRRVRIKESEAETREKSSSYATEQNESLDTKKEEQPERAVPQKTDEELAIEKINQTGRLFLRNILYTSKEEDFRKLFSPFGELEEVHVALDTRTGQSKGFAYVLFKDSKNAVNAYVELDKQIFQGRLLHILPGEEKKSHRLDEFDLKNMPLKKQKELKRKAAASRQTFSWNSLYMNQDAVLGSVAAKLGLEKSQLIDAENSSSAVKQALAEAHVIGDVRKYFESKGVDLTKFSQLKSTNQRDDKVILVKNFPFGTTREELGEMFLPYGKLERLLMPPAGTIAIVQFRDTTSARAAFTKLSYKRFKDGIIYLERGPKDCFTKPAEADDLINNTSAKEEENPVEVKPSSNDLMEANKDVTEGSSNAHDEDVIDGPTVSIFIKNLNFSTTNQNLTDRFKVFTGFVVAQVKTKPDPKHQGKTLSMGFGFVEFRTKEQANAVIAAMDGTVIDGHKIQLKLSHRQASQSGNTKTKSNKKSGKIIVKNLPFEATRKDVFELFNSFGQLKSVRVPKKFDKSARGFAFVEFLLPKEAENAMDQLHGVHLLGRRLVMQYAEEDAVDAEEEIARMTKKVRKQVATNEMAALRNGGGRKKLDVDDEENEGF
With B1, the binding result in assay [5] and in assay [6] was “binds” in each case.

B2: Nop9 (protein, UniProt P47077 1-666)
chain: MGKTKTRGRRHQDKQRKDEFEPSSNSAKEHIQQEESTYNDEAEIKETQPQMFFGVLDREELEYFKQAESTLQLDAFEAPEEKFQFVTSIIEEAKGKELKLVTSQITSKLMERVILECDETQLKDIFQSFNGVFFGLSCHKYASHVLETLFVRSAALVERELLTPSFDNNEKEGPYVTMENMFLFMLNELKPHLKTMMNHQYASHVLRLLILILSSKTLPNSTKANSTLRSKKSKIARKMIDIKDNDDFNKVYQTPESFKSELRDIITTLYKGFTNGAESRSDISQSTITKFREYSVDKVASPVIQLIIQVEGIFDRDRSFWRLVFNTADEKDPKEESFLEYLLSDPVGSHFLENVIGSARLKYVERLYRLYMKDRIVKLAKRDTTGAFVVRALLEHLKEKDVKQILDAVVPELSMLLNSNMDFGTAIINASNKQGGYLRDDVIAQLIQKYYPEKSDAKNILESCLLLSASTLGNTRDDWPTAEERRRSVFLEQLIDYDDKFLNITIDSMLALPEERLIQMCYHGVFSHVVEHVLQTTRVDIIKRKMLLNILSKESVNLACNVYGSHIMDKLWEFTAKLTLYKERIARALVLETEKVKNSIYGRQVWKNWKLELYVRKMWDWKKLIKEQEFEIFPNSKPLQPKPEKHSRERNNSKEGSAFKKQKHYR
Take B2: the binding result in assay [5] and in assay [6] was “binds” in each case.

The values are drawn from publication PMC12095548.
